What is called pKd is −log10 of the Kd, conventionally taken in molar units. The low end stands for a large Kd, the high end for a small Kd. Usually pIC50 stands for the IC50 on a negative log10 scale, so that one unit is a factor of ten. The low end stands for a high IC50, the high end for a low IC50.

Sequences of proteins named here, by UniProt entry; tags and fusion partners are left off.
UniProt Q9Y463, whole entry: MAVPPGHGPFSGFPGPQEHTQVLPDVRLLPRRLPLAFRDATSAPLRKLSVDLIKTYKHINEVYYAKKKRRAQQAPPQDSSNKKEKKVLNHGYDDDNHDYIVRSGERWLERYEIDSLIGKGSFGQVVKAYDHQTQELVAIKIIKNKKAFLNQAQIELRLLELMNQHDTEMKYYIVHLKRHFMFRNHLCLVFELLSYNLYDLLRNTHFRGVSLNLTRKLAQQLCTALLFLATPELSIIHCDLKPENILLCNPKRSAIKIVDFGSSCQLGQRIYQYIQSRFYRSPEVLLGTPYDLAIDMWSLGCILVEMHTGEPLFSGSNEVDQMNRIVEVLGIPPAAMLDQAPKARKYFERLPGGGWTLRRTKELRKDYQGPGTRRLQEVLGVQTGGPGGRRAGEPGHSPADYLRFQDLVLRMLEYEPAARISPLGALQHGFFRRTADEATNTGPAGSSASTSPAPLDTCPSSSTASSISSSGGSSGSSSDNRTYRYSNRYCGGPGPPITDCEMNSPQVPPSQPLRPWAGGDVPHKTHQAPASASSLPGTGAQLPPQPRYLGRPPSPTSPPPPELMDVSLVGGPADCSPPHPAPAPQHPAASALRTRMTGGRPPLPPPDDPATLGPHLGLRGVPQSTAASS

Our source for the Kd and IC50 values is PMC3968014, “Design and Synthesis of a Library of Lead-Like 2,4-Bisheterocyclic Substituted Thiophenes as Selective Dyrk/Clk Inhibitors” (PLoS ONE, 2014).

The target of the assay is T1, Dyrk1B (Homo sapiens, UniProt Q9Y463).
T1 construct: purchased Life Technologies PV4649 (LOT # 877059G)
Put plainly: Dyrk1B kinase assay (32P-ATP, Woodtide). In kind it is biochemical.

pIC50, pKd: −log10 of the molar value.

With `COc1ccc2c(c1)[nH]c1c(C)nccc12` [Harmine, harmine, reference compound], the pKd is 6.84. The pIC50 (IC50 Dyrk1B, 100 µM ATP) was 6.64.
